Assay [1] deals with T1, human CD177 on transiently transfected CHO cells (human) (UniProt Q8N6Q3).
T1 sequence: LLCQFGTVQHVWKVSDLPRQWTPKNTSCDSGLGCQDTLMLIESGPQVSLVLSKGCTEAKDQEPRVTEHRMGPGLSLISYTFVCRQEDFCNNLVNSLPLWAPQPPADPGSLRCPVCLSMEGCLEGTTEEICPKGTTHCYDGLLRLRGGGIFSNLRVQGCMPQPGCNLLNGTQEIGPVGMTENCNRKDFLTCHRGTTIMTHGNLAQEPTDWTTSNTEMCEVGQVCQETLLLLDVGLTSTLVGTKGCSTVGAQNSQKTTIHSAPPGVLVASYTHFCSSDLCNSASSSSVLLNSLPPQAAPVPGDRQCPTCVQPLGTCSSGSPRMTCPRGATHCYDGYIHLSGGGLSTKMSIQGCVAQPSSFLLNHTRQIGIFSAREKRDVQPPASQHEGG
Kind of assay: flow cytometry on cells; CHO cells transiently transfected with human CD177; about 1 × 10^5 cells stained with 1 µg ml^−1 hNP or Con for 20 min at 4 °C; untransfected cells as control; only the binder purified. (In general: In flow cytometry, cells or beads pass a laser one at a time.)

Assay [2] concerns the target T2, murine CD177 on murine neutrophils (mouse (endogenous in neutrophils)) (UniProt Q8R2S8).
T2 sequence: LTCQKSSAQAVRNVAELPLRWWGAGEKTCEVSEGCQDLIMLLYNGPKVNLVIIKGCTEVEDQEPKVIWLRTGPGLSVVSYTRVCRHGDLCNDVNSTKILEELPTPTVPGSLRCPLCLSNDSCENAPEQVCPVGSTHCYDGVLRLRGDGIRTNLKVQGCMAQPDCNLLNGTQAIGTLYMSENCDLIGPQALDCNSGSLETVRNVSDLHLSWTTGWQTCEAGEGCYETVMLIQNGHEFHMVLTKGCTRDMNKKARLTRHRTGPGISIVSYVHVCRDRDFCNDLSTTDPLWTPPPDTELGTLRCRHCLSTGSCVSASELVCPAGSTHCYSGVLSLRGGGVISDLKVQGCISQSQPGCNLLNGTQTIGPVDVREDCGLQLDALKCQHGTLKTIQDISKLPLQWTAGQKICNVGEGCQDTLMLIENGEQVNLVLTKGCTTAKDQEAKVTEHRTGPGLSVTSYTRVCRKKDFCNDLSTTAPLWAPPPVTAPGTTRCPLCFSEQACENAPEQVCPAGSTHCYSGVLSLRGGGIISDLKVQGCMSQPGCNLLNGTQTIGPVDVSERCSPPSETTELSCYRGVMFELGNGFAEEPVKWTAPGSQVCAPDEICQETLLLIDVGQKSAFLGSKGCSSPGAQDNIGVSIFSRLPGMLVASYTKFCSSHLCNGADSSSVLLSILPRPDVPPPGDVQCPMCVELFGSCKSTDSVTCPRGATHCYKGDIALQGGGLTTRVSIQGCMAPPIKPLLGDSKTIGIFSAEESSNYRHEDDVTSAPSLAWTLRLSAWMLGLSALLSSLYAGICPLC
The assay can be described thus: flow cytometry on cells; immune cells isolated from blood (human, pig, rat, mouse), 1 × 10^5 cells a well, free fluorescent peptide 1 µg ml^−1 for 20 min at 4 °C; human neutrophils co-stained with anti-CD177 monoclonal antibody; only the binder purified.

These are yes or no findings as the source states them, for the method shown. Some results given as binding are weak or reduced against the parent protein; the word gives no strength.

B1: randomized control peptide related to hNP (peptide)
peptide: KQLSEMVTDGGGC
modifications: carboxyfluorescein on the N-terminus; C-terminal cysteine with free sulfhydryl
B1: in assay [1], the binding result was “no binding (tested: 1 µg ml^−1)”.

B2: human neutrophil-specific peptide (hNP), free peptide (peptide)
peptide: DLVTSKLQVGGGC
modifications: carboxyfluorescein on the N-terminus; C-terminal cysteine with free sulfhydryl
B2: the binding entry in assay [1] is “binds”; in assay [2], “no binding (tested: 1 µg ml^−1)”.

The record behind these values is article PMC11357992, “Non-invasive mapping of systemic neutrophil dynamics upon cardiovascular injury” (Nature Cardiovascular Research, 2023).
